Data as given in PubChem BioAssay AID1259425 (University of Nebraska Medical Center, 2018)

- Screen: 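Seek colon cancer weak points whose silencing resembles KSR1 loss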 (primary screen)
- Cell system: HCT116 human colon cancer cells
- Reagents: siRNA pool against human genes, 50 nM siRNA
- Read-out: 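After 50 nM siRNA pool, branched-DNA assay measures six marker transcripts per well, minus blank, normalised to the geometric mean of two housekeeping transcripts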
- Direction: BNIP3L mRNA: higher = more BNIP3L transcript after knockdown; NDRG1 mRNA: higher = more NDRG1 transcript after knockdown; BNIP3 mRNA: higher = more BNIP3 transcript after knockdown; ALDOC mRNA: higher = more ALDOC transcript after knockdown; ACSL5 mRNA: higher = more ACSL5 transcript after knockdown
The whole screen tested about 14,000 reagents; this is a random part of them. No sequences are given here. Not stated in the record: the time to read-out.

| Gene | BNIP3L mRNA, set 1 | NDRG1 mRNA, set 1 | BNIP3 mRNA, set 1 | ALDOC mRNA, set 1 | ACSL5 mRNA, set 1 |
| --- | --- | --- | --- | --- | --- |
| RSPRY1 (ring finger and SPRY domain containing 1) | 0.0673 | 0.174 | 0.213 | 0.0147 | 0.162 |
| COTL1 (coactosin like F-actin binding protein 1) | 0.408 | 0.763 | 0.707 | 0.053 | 0.146 |
| TRAPPC8 (trafficking protein particle complex subunit 8) | 0.153 | 0.0867 | 0.262 | 0.0224 | 0.177 |
| RBM34 (RNA binding motif protein 34) | 0.12 | 0.16 | 0.348 | 0.0515 | 0.147 |
| AMH (anti-Mullerian hormone) | 0.11 | 0.127 | 0.395 | 0.0142 | 0.0725 |
| BMAL2 (basic helix-loop-helix ARNT like 2) | 0.0815 | 0.0922 | 0.206 | 0.0222 | 0.115 |
| TPBG (trophoblast glycoprotein) | 0.0728 | 0.317 | 0.218 | 0.0347 | 0.132 |
| GATA3 (GATA binding protein 3) | 0.0411 | 0.311 | 0.144 | 0.0152 | 0.222 |
| HHEX (hematopoietically expressed homeobox) | 0.132 | 0.183 | 0.268 | 0.0132 | 0.138 |
| H3C3 (H3 clustered histone 3) | 0.0825 | 0.257 | 0.332 | 0.0226 | 0.138 |
| TAF5 (TATA-box binding protein associated factor 5) | 0.143 | 0.204 | 0.423 | 0.0346 | 0.241 |
| HINFP (histone H4 transcription factor) | 0.0892 | 0.169 | 0.233 | 0.00874 | 0.21 |
| KRT13 (keratin 13) | 0.19 | 0.276 | 0.388 | 0.0457 | 0.219 |
| RPS6KB1 (ribosomal protein S6 kinase B1) | 0.248 | 0.036 | 0.266 | 0.012 | 0.0809 |
| SLC16A8 | 0.0578 | 0.373 | 0.293 | 0.0592 | 0.12 |
| DUSP7 (dual specificity phosphatase 7) | 0.0481 | 0.1 | 0.233 | 0.0044 | 0.175 |
| FASTKD5 (FASTK mitochondrial RNA regulator 5) | 0.146 | 0.15 | 0.166 | 0.0329 | 0.14 |
| HMGCR (3-hydroxy-3-methylglutaryl-CoA reductase) | 0.0642 | 0.144 | 0.28 | 0.0247 | 0.121 |
| ELMOD1 (ELMO domain containing 1) | 0.0858 | 0.163 | 0.267 | 0.00604 | 0.154 |
| POLB (DNA polymerase beta) | 0.0744 | 0.178 | 0.224 | 0.0203 | 0.276 |
| KLHDC10 (kelch domain containing 10) | 0.11 | 0.124 | 0.311 | 0.0115 | 0.188 |
| KLHL42 (kelch like family member 42) | 0.0788 | 0.314 | 0.27 | 0.0347 | 0.367 |
| MOV10 (Mov10 RNA helicase) | 0.0915 | 0.228 | 0.207 | 0.0179 | 0.269 |
| CYP4B1 (cytochrome P450 family 4 subfamily B member 1) | 0.0857 | 0.0821 | 0.292 | 0.0159 | 0.151 |
| ZNF22 (zinc finger protein 22) | 0.089 | 0.178 | 0.242 | 0.0134 | 0.141 |
| PSMB6 (proteasome 20S subunit beta 6) | 0.204 | 0.743 | 0.334 | 0.0862 | 0.278 |
| GFI1B (growth factor independent 1B transcriptional repressor) | 0.12 | 0.0441 | 0.232 | 0.00831 | 0.119 |
| STYXL1 (serine/threonine/tyrosine interacting like 1) | 0.0729 | 0.351 | 0.261 | 0.0319 | 0.251 |
| DCTD (dCMP deaminase) | 0.0481 | 0.179 | 0.37 | 0.0155 | 0.172 |
| AMELY (amelogenin Y-linked) | 0.0855 | 0.135 | 0.208 | 0.0301 | 0.0672 |
| ATP5MJ (ATP synthase membrane subunit j) | 0.165 | 0.228 | 0.311 | 0.0299 | 0.0843 |
| FTH1 (ferritin heavy chain 1) | 0.0936 | 0.0975 | 0.464 | 0.0205 | 0.186 |
| KLHDC2 (kelch domain containing 2) | 0.113 | 0.136 | 0.209 | 0.00941 | 0.232 |
| KCNJ10 (potassium inwardly rectifying channel subfamily J member 10) | 0.076 | 0.39 | 0.251 | 0.0232 | 0.232 |
| ANTXR1 (ANTXR cell adhesion molecule 1) | 0.193 | 0.14 | 0.312 | 0.0749 | 0.567 |
| TFAP2D (transcription factor AP-2 delta) | 0.0985 | 0.137 | 0.223 | 0.0152 | 0.146 |
| SLC22A12 | 0.0765 | 0.0881 | 0.155 | 0.00641 | 0.0777 |
| ALS2 (alsin Rho guanine nucleotide exchange factor ALS2) | 0.0591 | 0.068 | 0.231 | 0.0148 | 0.103 |
| TBKBP1 (TBK1 binding protein 1) | 0.0803 | 0.527 | 0.264 | 0.0408 | 0.127 |
| NOX5 (NADPH oxidase 5) | 0.077 | 0.0936 | 0.224 | 0.0134 | 0.181 |
| FLRT3 (fibronectin leucine rich transmembrane protein 3) | 0.0633 | 0.147 | 0.355 | 0.0132 | 0.138 |
| CLMP (CXADR like cell adhesion molecule) | 0.219 | 0.237 | 0.304 | 0.0326 | 0.265 |
| NLE1 (notchless homolog 1) | 0.296 | 0.588 | 0.906 | 0.091 | 0.207 |
| URGCP (upregulator of cell proliferation) | 0.0507 | 0.141 | 0.296 | 0.0141 | 0.212 |
| HSDL1 (hydroxysteroid dehydrogenase like 1) | 0.15 | 0.291 | 0.352 | 0.0716 | 0.235 |
| MAEL (maelstrom spermatogenic transposon silencer) | 0.123 | 0.125 | 0.224 | 0.0267 | 0.168 |
| CAMK2B (calcium/calmodulin dependent protein kinase II beta) | 0.0923 | 0.153 | 0.387 | 0.00618 | 0.0927 |
| TRAIP (TRAF interacting protein) | 0.0658 | 0.0638 | 0.249 | 0.0225 | 0.16 |
| OAS2 (2'-5'-oligoadenylate synthetase 2) | 0.061 | 0.22 | 0.233 | 0.0311 | 0.131 |
| RTN4IP1 (reticulon 4 interacting protein 1) | 0.204 | 0.138 | 0.359 | 0.232 | 0.549 |

Reformatted: entries from further up.
COTL1 (coactosin like F-actin binding protein 1)
- BNIP3L mRNA, set 1: 0.408
- NDRG1 mRNA, set 1: 0.763
- BNIP3 mRNA, set 1: 0.707
- ALDOC mRNA, set 1: 0.053
- ACSL5 mRNA, set 1: 0.146

TRAPPC8 (trafficking protein particle complex subunit 8)
- BNIP3L mRNA, set 1: 0.153
- NDRG1 mRNA, set 1: 0.0867
- BNIP3 mRNA, set 1: 0.262
- ALDOC mRNA, set 1: 0.0224
- ACSL5 mRNA, set 1: 0.177

RBM34 (RNA binding motif protein 34)
- BNIP3L mRNA, set 1: 0.12
- NDRG1 mRNA, set 1: 0.16
- BNIP3 mRNA, set 1: 0.348
- ALDOC mRNA, set 1: 0.0515
- ACSL5 mRNA, set 1: 0.147

AMH (anti-Mullerian hormone)
- BNIP3L mRNA, set 1: 0.11
- NDRG1 mRNA, set 1: 0.127
- BNIP3 mRNA, set 1: 0.395
- ALDOC mRNA, set 1: 0.0142
- ACSL5 mRNA, set 1: 0.0725

BMAL2 (basic helix-loop-helix ARNT like 2)
- BNIP3L mRNA, set 1: 0.0815
- NDRG1 mRNA, set 1: 0.0922
- BNIP3 mRNA, set 1: 0.206
- ALDOC mRNA, set 1: 0.0222
- ACSL5 mRNA, set 1: 0.115

TPBG (trophoblast glycoprotein)
- BNIP3L mRNA, set 1: 0.0728
- NDRG1 mRNA, set 1: 0.317
- BNIP3 mRNA, set 1: 0.218
- ALDOC mRNA, set 1: 0.0347
- ACSL5 mRNA, set 1: 0.132

GATA3 (GATA binding protein 3)
- BNIP3L mRNA, set 1: 0.0411
- NDRG1 mRNA, set 1: 0.311
- BNIP3 mRNA, set 1: 0.144
- ALDOC mRNA, set 1: 0.0152
- ACSL5 mRNA, set 1: 0.222

HHEX (hematopoietically expressed homeobox)
- BNIP3L mRNA, set 1: 0.132
- NDRG1 mRNA, set 1: 0.183
- BNIP3 mRNA, set 1: 0.268
- ALDOC mRNA, set 1: 0.0132
- ACSL5 mRNA, set 1: 0.138
